The results in this text go back to PubChem BioAssay AID248 (DTP/NCI, 2004).

The list does not hold the whole screen: it is rich in T/C values a quarter to a half above the control, in often repeated tests (any T/C) and in doses without a T/C. Other doses and runs of a compound stand elsewhere. T/C: endpoint of the treated group in % of that of the vehicle group. Some entries give survivors of the animals treated and no T/C: the source holds a T/C of zero for them, seemingly a mark for toxic or unscored doses. Some doses without a T/C left all or most animals alive at the check, yet need not have been tolerated: survival well below the control is almost never listed, so the zero probably covers shortened survival too. Survivors were counted at the toxicity check, usually on the fifth day, unless a day is given; later deaths do not show. Schedules are NCI's codes, taken here to give the interval after Q, in days (D) or hours (H), and the number of doses after X. Some entries hold several experiments; the values are given in rising order. Some schedule codes hold Z or #, which are not explained here. For survival time, the PubChem record calls one and a half times the control and up active, and a quarter to a half above the control has no call in these data; cut-offs in other NCI protocols can differ. Some T/C values are followed by the survivors on the day toxicity was checked, most often the fifth; where none is given, no animal had died by that day.

The test system of this experiment is L1210 leukemia ip in BDF1 mice, survival T/C. The experiment is described as follows: NCI In Vivo Anticancer Drug Screen. Data for tumor model L1210 Leukemia (intraperitoneal) in B6D2F1 (BDF1) mice. The conditions noted are these: T/C endpoint: mean survival time, higher T/C = longer survival.
Where [1] appears, read: dose: 400.0 mg/kg/injection, schedule: Q04DX002 (ip), vehicle: Klucel (hydroxypropylcellulose) (HPC).
Setting [2] is: dose: 100.0 mg/kg/injection, schedule: Q04DX003 (ip), vehicle: saline.
[3] abbreviates: dose: 200.0 mg/kg/injection, schedule: Q04DX003 (ip), vehicle: saline.
The mark [4] stands for this setting: dose: 400.0 mg/kg/injection, schedule: Q04DX003 (ip), vehicle: saline.
Where [5] appears, read: dose: 200.0 mg/kg/injection, schedule: Q01DX001 (ip), vehicle: carboxymethylcellulose (CMC).
[6] abbreviates: dose: 400.0 mg/kg/injection, schedule: Q01DX001 (ip), vehicle: carboxymethylcellulose (CMC).
Where [7] appears, read: dose: 100.0 mg/kg/injection, schedule: Q01DX001 (ip), vehicle: saline.
The mark [8] stands for this setting: dose: 400.0 mg/kg/injection, schedule: Q01DX001 (ip), vehicle: saline with Tween-80.
The mark [9] stands for this setting: dose: 200.0 mg/kg/injection, schedule: Q04DX003 (ip), vehicle: saline with Tween-80.
Setting [10] is: dose: 400.0 mg/kg/injection, schedule: Q01DX001 (ip), vehicle: other.
The mark [11] stands for this setting: dose: 200.0 mg/kg/injection, schedule: Q01DX Z (ip), vehicle: saline.

For `[CH3][Pb]([CH3])([CH3])[O]C(=O)c1ccc([N+](=O)[O-])cc1`, the survivor count runs as follows: (dose: 25.0 mg/kg/injection, schedule: Q04DX002 (ip), vehicle: Klucel (hydroxypropylcellulose) (HPC)) 2 of 3; (dose: 50.0 mg/kg/injection, schedule: Q04DX002 (ip), vehicle: Klucel (hydroxypropylcellulose) (HPC)) 0 of 3; (dose: 100.0 mg/kg/injection, schedule: Q04DX002 (ip), vehicle: Klucel (hydroxypropylcellulose) (HPC)) 0 of 3; (dose: 200.0 mg/kg/injection, schedule: Q04DX002 (ip), vehicle: Klucel (hydroxypropylcellulose) (HPC)) 0 of 3; under setting [1], 0 of 3.
For the compound `CCCCCCCCCCCCNC(=O)C[n+]1cccc(C(=O)N(CC)CC)c1`, the survivor count reads like this: under setting [2], 1 of 6; under setting [3], 0 of 6; under setting [4], 0 of 6.
`Cc1ccc2[nH]c(=S)n(-c3ccc(C)c(Cl)c3)c(=O)c2c1`: the survivor count (dose: 100.0 mg/kg/injection, schedule: Q01DX009 (ip), vehicle: carboxymethylcellulose (CMC)) is 3 of 3.
`CC/C(=C(\CC)c1ccc(OCCN(CC)CC)cc1)c1ccc(OCCN(CC)CC)cc1`: the survivor count was 1 of 4 (dose: 20.0 mg/kg/injection, schedule: Q01DX001 (ip), vehicle: carboxymethylcellulose (CMC)); 0 of 4 (dose: 50.0 mg/kg/injection, schedule: Q01DX001 (ip), vehicle: carboxymethylcellulose (CMC)); 0 of 4 (dose: 80.0 mg/kg/injection, schedule: Q01DX001 (ip), vehicle: carboxymethylcellulose (CMC)); 0 of 4 under setting [5]; 0 of 4 under setting [6].
As to `NC(N)=N/N=C/c1ccc(O)cc1`, the survivor count (dose: 120.0 mg/kg/injection, schedule: Q01DX Z (ip), vehicle: saline) was 3 of 6.
`c1ccc2c(c1)CC1(Cc3ccccc3-2)C[N+]12CCCCC2`: the survivor count under setting [2] was 2 of 6, the survivor count under setting [3] is 0 of 6 and the survivor count under setting [4] is 0 of 6.
On to `CSc1ccc(OC(=O)Nc2ccccc2F)cc1`, for which the survivor count (dose: 200.0 mg/kg/injection, schedule: Q01DX009 (ip), vehicle: saline with Tween-80) is listed as 5 of 6.
For `CN1C(=O)C(C)(C)C(=O)C1(C)C`, under setting [7], the survivor count was 6 of 6.
Take `CCCCCCP(C)(=O)CCCCCC`: the survivor count (dose: 200.0 mg/kg/injection, schedule: Q01DX001 (ip), vehicle: saline with Tween-80) was 3 of 6 and the survivor count under setting [8] is recorded as 0 of 6.
For `C/C=C/C(=O)Nc1cc(C(F)(F)F)ccc1Cl`, the survivor count runs as follows: (dose: 200.0 mg/kg/injection, schedule: Q01DX009 (ip), vehicle: saline) 3 of 3; under setting [9], 6 of 6; under setting [8], 5 of 6; (dose: 400.0 mg/kg/injection, schedule: Q01DX009 (ip), vehicle: saline) 0 of 3 and 0 of 6; (dose: 400.0 mg/kg/injection, schedule: Q04DX002 (ip), vehicle: saline) 3 of 6.
Turning to `C[N+](C)(C)c1ccc(N=Nc2ccccn2)cc1`, the survivor count by setting is: under setting [7], 1 of 6; (dose: 200.0 mg/kg/injection, schedule: Q01DX001 (ip), vehicle: saline) 0 of 6.
Consider `Nc1ccc2ncccc2c1[N+](=O)[O-]`, for which the survivor count under setting [10] was 0 of 6.
Regarding `Cc1ccc(Cl)cc1NS(=O)(=O)c1cccc([N+](=O)[O-])c1`, under “dose: 400.0 mg/kg/injection, schedule: Q01DX009 (ip), vehicle: saline with Tween-80”, the survivor count is given as 6 of 6.
As to `CC(C)COC(CN)C(Cl)(Cl)Cl` (stereo unspecified), the survivor count by setting is: under setting [8], 1 of 6; (dose: 400.0 mg/kg/injection, schedule: Q04DX002 (ip), vehicle: saline with Tween-80) 1 of 6 and 1 of 3.
For `Cn1c(=O)c2c(nc(OC3CCCCCC3)n2C)n(C)c1=O`, under setting [10], the survivor count is listed as 2 of 4.
For `Fc1cccc(CSC(=S)Nc2ccc(Cl)c(Cl)c2)c1`, under setting [9], the survivor count is listed as 2 of 3.
For `CC1=C(C)C(=O)OC1=O`, for the setting “dose: 400.0 mg/kg/injection, schedule: Q04DX003 (ip), vehicle: Klucel (hydroxypropylcellulose) (HPC)”, the survivor count is recorded as 6 of 6.
In the case of `Cc1c(CCO)c(=O)n2n1CCCC2`, the survivor count (dose: 300.0 mg/kg/injection, schedule: Q01DX001 (ip), vehicle: other) is listed as 0 of 6.
As to `CCNC(=O)N1CCN(c2ccc(Cl)cc2)CC1`, the survivor count (dose: 300.0 mg/kg/injection, schedule: Q01DX001 (ip), vehicle: saline) is 2 of 6.
Turning to `COc1ccc([N+](=O)[O-])cc1NC(=O)Nc1cc(C)on1`, under setting [1], the survivor count is on record as 3 of 3.
For `C=CCSc1ncnc2c1ncn2C1OC(CO)C(O)C1O` (stereo unspecified), the T/C was 133 and 135 % of control (dose: 50.0 mg/kg/injection, schedule: Q01DX Z (ip), vehicle: saline); 125 % of control (dose: 58.0 mg/kg/injection, schedule: Q01DX009 (ip), vehicle: carboxymethylcellulose (CMC)); 136 % of control (dose: 67.0 mg/kg/injection, schedule: Q01DX Z (ip), vehicle: saline); 131 % of control [5 of 6 alive] (dose: 88.0 mg/kg/injection, schedule: Q01DX009 (ip), vehicle: carboxymethylcellulose (CMC)); 133 % of control [4 of 6 alive] (dose: 100.0 mg/kg/injection, schedule: Q01DX Z (ip), vehicle: saline); 145 % of control (dose: 101.0 mg/kg/injection, schedule: Q01DX Z (ip), vehicle: saline). In addition, the T/C runs as follows: (dose: 133.0 mg/kg/injection, schedule: Q01DX009 (ip), vehicle: carboxymethylcellulose (CMC)) 134 % of control; (dose: 177.0 mg/kg/injection, schedule: Q01DX001 (ip), vehicle: carboxymethylcellulose (CMC)) 134 and 138 % of control; under setting [5], 129 % of control; under setting [11], 132 % of control; (dose: 225.0 mg/kg/injection, schedule: Q01DX Z (ip), vehicle: saline) 138 % of control; under setting [6], 134 % of control. Also, the survivor count runs as follows: under setting [11], 0 of 6; under setting [6], 3 of 6; (dose: 500.0 mg/kg/injection, schedule: Q01DX Z (ip), vehicle: saline) 0 of 6; (dose: 600.0 mg/kg/injection, schedule: Q01DX001 (ip), vehicle: carboxymethylcellulose (CMC)) 0 of 6.
On to `CN(CCO)N=Nc1ccccc1C#N`, for which the survivor count by setting is: (dose: 6.25 mg/kg/injection, schedule: Q04DX003 (ip), vehicle: other) 6 of 6; (dose: 12.5 mg/kg/injection, schedule: Q04DX003 (ip), vehicle: other) 6 of 6; (dose: 25.0 mg/kg/injection, schedule: Q04DX003 (ip), vehicle: other) 6 of 6; (dose: 50.0 mg/kg/injection, schedule: Q01DX009 (ip), vehicle: other) 1 of 6; (dose: 50.0 mg/kg/injection, schedule: Q04DX003 (ip), vehicle: other) 6 of 6; (dose: 100.0 mg/kg/injection, schedule: Q01DX009 (ip), vehicle: other) 1 of 6. The survivor count reads like this: (dose: 100.0 mg/kg/injection, schedule: Q04DX003 (ip), vehicle: other) 6 of 6; (dose: 200.0 mg/kg/injection, schedule: Q01DX009 (ip), vehicle: other) 0 of 6; (dose: 200.0 mg/kg/injection, schedule: Q04DX003 (ip), vehicle: other) 5 of 6 and 6 of 6; (dose: 400.0 mg/kg/injection, schedule: Q01DX009 (ip), vehicle: other) 0 of 6; (dose: 400.0 mg/kg/injection, schedule: Q04DX003 (ip), vehicle: other) 5 of 6.
